For orientation: MIC means the lowest concentration found to suppress growth.

Values after ≈ are worked out from the molar mass of the structure shown.

The experiment deals with S. aureus ATCC 29213. Briefly: antibiotic susceptibility testing using the cell culture test device (DRAST), reference strain. Type of experiment: cell-based. The note with it: Staphylococcus aureus, ATCC29213, observed until 6 h. An excerpt:
Referring first to (a) of FIG. 4, a liquid medium containing a gelling agent is mixed with a biological agent to prepare a mixture solution as a first fluid. The liquid medium may include at least about 95% by weight of water and can be solidified due to the presence of the gelling agent. As the gelling agent, there may be exemplified agar, agarose, gelatin, alginate, collagen or fibrin. The use of agar or agarose is preferred. For example, agar may be used in an amount of 0.5 to 4% by weight in the liquid medium. The liquid medium usually requires no nutrients. In some examples, however, the liquid medium may include nutrients. The liquid medium may be a solution including a medium stimulating the division of particular cells.
Referring next to (b) of FIG. 4, the mixture solution is provided to a recess 421 formed at the bottom of a first sub-well. The mixture solution may be loaded in an amount corresponding to the volume of the recess of the first sub-well. The volume of the mixture solution loaded into the recess of the first sub-well is preferably from 10 μl to 200 μl, more preferably from 10 μl to 150 μl. If the volume of the mixture solution loaded into the first sub-well is less than the lower limit, the density of cells in the mixture solution is low, making it difficult to observe the cells. […]

The molecule `CC1(C)S[C@@H]2[C@H](NC(=O)[C@H](N)c3ccccc3)C(=O)N2[C@H]1C(=O)O` [ampicillin] came in with a minimal inhibitory concentration (MIC) of 1 µg/mL (≈ 2.86 µM).

Source of the values: patent US11377679B2, “Multi-well-based cell culture test device for rapid antibiotic susceptibility testing” (priority 2016, dated 2022).
